Results on 38 molecules are retold here after PubChem BioAssay AID2685 (National Center for Advancing Translational Sciences (NCATS), 2010).

The list shows a part of the results. Further columns of the screen follow, without active or inactive calls. Most of these compounds were active or inconclusive in the main read-out, so they are no random draw. Words in brackets tell the shape of the fitted curve; partial curves, single points and poor fits give uncertain potencies.

As a reminder, the AC50 is the midpoint of the concentration-response curve, whichever way the signal moves. The low end stands for greater potency, the high end for weaker potency.

The nature of this test: qHTS Assay for Lipid Storage Modulators in Drosophila S3 Cells.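 As to cell number change: cells counted by Cell Tracker Red CMTPX staining in the red channel.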 Particulars: BODIPY lipid droplet fluorescence, 18-24 h; for cell number change: measured here: cell count max response, cells fed with added oleic acid. In a few lines:
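Drosophila S3 cells got compounds at several concentrations plus oleic acid (400 uM solution). Laser-scanning cytometry with 488 nm excitation read lipid droplets at 500-530 nm and cells at 575-640 nm. Percent activity was relative to 20 uM Triacsin C.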
For orientation: In qHTS, concentration-response curves come from the screen itself.

The mark [1] stands for this setting: measured here: cell number channel AC50, cells fed with added oleic acid.
Where [2] appears, read: measured here: lipid fluorescence (Fed channel) AC50, cells fed with added oleic acid.

For `Cc1ccc(NC(=O)Cn2nnc(C(=O)Nc3ccc(C)c(C)c3)c2N)cc1`, the AC50 reads like this: under setting [1], 2590 nM [rising, partial curve]; under setting [2], 2310 nM [rising, partial curve]. With `CCc1ccc(OCCCOc2ccc(C=O)cc2)cc1`, the cell number change was 25.6%. For `Cc1ccc(-n2nc3c(N4CCC(C(=O)NCc5ccc(C)o5)CC4)nnc(C)c3c2C)cc1`, the cell number change turned out to be 1.81%. For `Fc1c(F)c(C(F)(F)F)c(F)c(F)c1N/N=C\c1cccs1`, the cell number change was -59%. Besides, the AC50 under setting [1] is 16400 nM [falling, single point].

For `Cc1cccc(OCC(=O)O/N=C(\N)c2ccc(Cl)cc2)c1`, the cell number change was -73.6%. Besides, under setting [1], the concentration at half-maximal activity (AC50) is 13000 nM [falling, partial curve]. Besides, the AC50 under setting [2] was 16400 nM [falling, partial curve, poor fit].

`CCCCNC(=O)Nc1ccccc1CC`: the cell number change was -13%. Further, under setting [2], the AC50 is 103 nM [falling, single point]. With `CCOC(=O)C1=C(C)S/C(=C\N(C)C)C1=O`, the cell number change was -9.39%. Moreover, the AC50 under setting [2] was 461 nM [falling, single point]. As for `Cc1cc(C)cc(NC(=O)C(OC(=O)Cn2cnc3c2c(=O)n(C)c(=O)n3C)c2ccccc2)c1` (centres undefined), the cell number change is -6.94%. In addition, under setting [2], the concentration at half-maximal activity (AC50) was 6510 nM [rising, single point].

Turning to `CC(=O)Nc1ccc(S(=O)(=O)N2CCN=C2SCc2ccccc2C)cc1`, the cell number change was -16.1%. Regarding `CN(CC(=O)Nc1cccc(F)c1)C(=O)c1cc(-c2ccco2)nc2ccccc12`, the cell number change stood at 43.3%. The AC50 under setting [1] was 2060 nM [rising, full curve]. In addition, the AC50 under setting [2] is 3260 nM [rising, partial curve, poor fit]. On to `CC1(C)Cc2ccccc2-c2nnnn21`, for which the cell number change is -20.5%. The half-maximal activity concentration (AC50) under setting [2] was 1300 nM [falling, partial curve]. With `O=C(COc1ccccc1Cl)NCc1ccco1`, the cell number change worked out at 43.8%. Take `Brc1ccc(C2CC(c3ccccc3)=Nc3ccccc3N2)cc1` (centres undefined): the cell number change is 35.5%. For the same molecule, under setting [1], the concentration at half-maximal activity (AC50) is 9200 nM [rising, partial curve]. For the same molecule, the concentration at half-maximal activity (AC50) under setting [2] is 16400 nM [rising, partial curve]. For `COc1ccc(NC(=O)COC(=O)CNS(=O)(=O)c2ccc(C)cc2)c(OC)c1`, the cell number change is -10.6%. Also, the AC50 under setting [2] was 651 nM [falling, partial curve].

With `Cc1ccc(S(=O)(=O)N2C(=O)CCC2C(=O)Nn2cnnc2)cc1` (centres undefined), the cell number change was -0.147%. Also, the AC50 under setting [2] is 461 nM [falling, single point].

With `O=C(CNC(=O)Cc1ccccc1)NCC(=O)OCc1ccc(C(=O)c2ccccc2)cc1`, the cell number change is -10.1%. The AC50 under setting [2] was 731 nM [falling, full curve]. As for `C=CCOc1ccc(C2/C(=C(/O)c3ccc4c(c3)CC(C)O4)C(=O)C(=O)N2CCCN2CCOCC2)cc1` (centres undefined), the AC50 under setting [1] was 366 nM [falling, full curve, poor fit]. In the case of `CC(C)(C)C1CCc2onc(C(=O)NCc3ccc(F)cc3)c2C1` (centres undefined), the cell number change was -5.73%. The AC50 under setting [2] is 651 nM [falling, single point]. Take `CC12CCC(=O)N1C(C(=O)NNC(=O)COc1cccc(C(F)(F)F)c1)CS2` (centres undefined): under setting [2], the AC50 is 651 nM [falling, single point]. `c1coc(-c2nc3nc4ccccc4nc3n2CC2CCCO2)c1` (centres undefined): the cell number change came to 104%. Further, the AC50 under setting [1] was 8200 nM [rising, partial curve]. Further, under setting [2], the AC50 is 23100 nM [rising, single point].

Regarding `COc1ccc(NC(=S)N2CCN(c3ccc([N+](=O)[O-])cc3)CC2)cc1OC`, the cell number change was -8.54%. For the same molecule, the AC50 under setting [2] was 580 nM [falling, full curve].

In the case of `CCCNC(=O)C1CCN(c2cc(-c3ccccc3)nc3ncnn23)CC1`, the cell number change was -23.8%. Further, the AC50 under setting [2] is 20600 nM [falling, single point]. On to `COc1cccc(N2CCN(c3ccc4nnc(CCC(=O)N5CCN(C)CC5)n4n3)CC2)c1`, for which the cell number change is -62%. In addition, the AC50 under setting [1] is 20600 nM [falling, single point]. Regarding `CCOC(=O)c1nn(-c2cccc(C)c2)c2nc(-c3ccccc3)c(C#N)c(=O)n12`, the cell number change is 46.5%. For the same molecule, the AC50 under setting [1] is 2060 nM [rising, partial curve]. In addition, under setting [2], the half-maximal activity concentration (AC50) is 731 nM [rising, partial curve].

`N#C/C(=C/c1ccc(OCc2ccccc2)cc1)C(=O)NC1CCCCC1`: the cell number change was -62.7%. For the same molecule, under setting [1], the concentration at half-maximal activity (AC50) was 5800 nM [falling, full curve, poor fit]. Also, under setting [2], the AC50 was 461 nM [falling, full curve]. Regarding `O=C(/C=C/c1ccc(NC(=O)c2ccccc2-c2ccccc2C(=O)O)cc1)c1ccccc1`, the cell number change was -18%. Also, the AC50 under setting [2] was 580 nM [falling, single point]. For the molecule `CN1C=CC2=C(C#N)C(N)C(C#N)(C#N)C(c3ccccc3)C2C1` (centres undefined), the cell number change was 81.5%. The AC50 under setting [1] is 8200 nM [rising, partial curve]. In addition, the AC50 under setting [2] is 8200 nM [rising, partial curve]. Consider `CN(C(=O)/C=C/c1cnc2ccccc2c1)C1CCCCC1`, for which the cell number change is 9.45%. The AC50 under setting [2] is 6510 nM [rising, single point].

`COc1cc(/C=N/O)cc(Br)c1OC`: the cell number change is -4.87%. On to `COC(=O)Cc1c(C)c2c(O)cc(C)cc2oc1=O`, for which the cell number change is 2.23%. Under setting [2], the AC50 was 1160 nM [falling, full curve].

On to `COc1ccc(/C=N/NC(=O)c2cc(-c3ccc(C)cc3C)nc3ccccc23)cc1COC(C)=O`, for which the cell number change was determined as 6.35%. In addition, the concentration at half-maximal activity (AC50) under setting [2] was 29100 nM [rising, single point].

For `Cc1nnc(NC(=O)c2ccccc2F)s1`, the cell number change was -28.3%. Under setting [1], the AC50 is 4110 nM [falling, full curve, poor fit]. Moreover, under setting [2], the AC50 is 25900 nM [falling, single point]. As to `CC1=C(C(=O)OCC2CCCO2)C(c2ccc(C)cc2)C2=C(CCCC2=O)N1` (centres undefined), the cell number change was determined as 9.38%. Under setting [2], the AC50 was 206 nM [rising, full curve, poor fit]. As for `CNC(=O)c1cc(S(=O)(=O)Nc2ccc3c(c2)OCCO3)ccc1C`, the cell number change is -8.47%. Consider `CCCN(C(=O)C(C)Oc1cccc(Cl)c1)c1c(N)n(Cc2ccccc2)c(=O)[nH]c1=O` (centres undefined), for which the cell number change came out at 21.6%. The AC50 under setting [2] was 651 nM [rising, single point]. Turning to `Cc1csc(NC(=O)c2cc(C)on2)n1`, the cell number change was found to be 32.8%. For the molecule `Cc1ccc(C(=O)NNC(=O)c2ccc(NC(=O)C(C)(C)C)cc2)cc1`, the cell number change was determined as 20.7%. Also, under setting [1], the AC50 is 58 nM [rising, full curve, poor fit].

Turning to `O=C(CSc1nnc(CNC(=O)c2ccccc2F)o1)c1ccccc1`, the AC50 under setting [2] is 4610 nM [rising, partial curve].
